We go through one substance from publication doi:10.1101/2023.03.22.533843.

Protein sequences, listed by entry. Tags and fused reporters are not part of them. Lines headed by an entry give the natural chain unless they say otherwise; changes in a name come on top.
UniProt Q9NWS0, whole entry, stated change not applied: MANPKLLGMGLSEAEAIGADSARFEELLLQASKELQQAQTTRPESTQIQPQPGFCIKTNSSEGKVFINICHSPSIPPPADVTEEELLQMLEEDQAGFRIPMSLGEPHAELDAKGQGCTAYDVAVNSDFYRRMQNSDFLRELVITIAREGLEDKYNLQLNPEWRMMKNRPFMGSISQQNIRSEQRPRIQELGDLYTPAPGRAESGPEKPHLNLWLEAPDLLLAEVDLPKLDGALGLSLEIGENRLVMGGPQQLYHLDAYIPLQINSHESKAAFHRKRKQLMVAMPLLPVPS

These are yes or no findings as the source states them, for the method shown. Binding seen in cells or lysates may run through a third protein. Here binding means that the protein was enriched with, or labelled near, the bait; the list need not be complete.

The target in this experiment is PIH1D1 (endogenous prey) (human (endogenous in HEK293)) (UniProt Q9NWS0). The experiment in a line: affinity purification with mass spectrometry.

HSP90AA1 (from UniProt P07900 1-732): the binding entry was “binds”.
